From article PMC8400343, “Synthesis and Evaluation of the Antidepressant-like Properties of HBK-10, a Novel 2-Methoxyphenylpiperazine Derivative Targeting the 5-HT1A and D2 Receptors” (Pharmaceuticals, 2021) come the findings set out here.

The data set concerns HepG2 cells. As to the kind of experiment: MTT viability assay in HepG2 cells. It is filed as cell-based, human. The note with it: 24 h. The method, then: To investigate the lack of hepatotoxicity of HBK-10 at 25 µM concentration, we used HepG2 cells. Viability was measured using 3-(4,5-dimethyl-thiazol-2-yl)-2,5-diphenyltetrazolium (MTT) assay. We chose 25 µM since such concentration was used in metabolic stability studies.
To investigate the preliminary hepatic safety of HBK-10 at the concentration used in metabolic stability study, a human hepatocellular carcinoma cell line—HepG2 (HB-8065TM, ATCC, Manassas, VA, USA) was used in the study. HepG2 cells were cultured in standard conditions (37 °C, 5% CO2, 95% humidity) in appropriate culture medium (according to manufacturer procedure), supplemented with 10% fetal bovine serum (FBS, Gibco, Thermo Fisher Scientific, Waltham, MA, USA) and antibiotics (1% streptomycin/penicillin mixture; Sigma-Aldrich, Steinheim, Germany). Cells were seeded in 96-well plates at density of 1 × 10^4 per well. After 24 h cells were treated with two doses of HBK-10 (5 and 25 µM, solvent—PBS) and incubated for additional 24 h. Following the incubation cells viability was measured with MTT assay. For this purpose, MTT reagent (3-(4,5-dimethylthiazol-2-yl)-2,5-diphenyltetrazolium bromide) (Sigma Aldrich, Steinheim, Germany) was added to each well at the concentration 0.5 mg/mL. After 4 h incubation at 37 °C, the medium was aspirated, and formazan crystals produced in the cells were dissolved in DMSO. Then the absorbance of solution was determined at 570 nm (A570) on plate reader (Spectra iD3 Max, Molecular Devices; San Jose, CA, USA). Viability (% of control) was determined by dividing A570 of experimental wells by of A570 of control wells × 100%.
A general note: Tetrazolium dyes change colour on reduction, which living cells bring about.

With `CCC(CN1CCN(c2ccccc2OC)CC1)NCCCOc1c(C)cccc1C.Cl.Cl` (stereo not drawn) [HBK-10, N-(3-(2,6-dimethylphenoxy)propyl)-1-(4-(2-methoxyphenyl)piperazin-1-yl)butan-2-amine dihydrochloride], the “Absorbance (OD570 nm)” value is, setting by setting: (HBK-10 1 μM) 0.531 OD570 nm; (HBK-10 5 μM) 0.569 OD570 nm; (HBK-10 25 μM) 0.463 OD570 nm.
